Results on 104 sequences are retold here after PubChem BioAssay AID1347423 (Functional Genomics Laboratory (NCATS/FGL), 2020).

Hit rate of the full screen: of about 52,000 sequences, about 210 (0.4%) were called active.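 The calls were made as follows: active = gene whose silencing raises cell survival under the drug, median off-target-corrected z-score across its silencing RNAs 2 or more; inactive = the rest.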 The list shows a part of the results.

The experiment in a line: Resistance to Poly (ADP-Ribose) Polymerase inhibitor: Gene Identification via Genome-wide siRNA Screen. The note with it: mouse BRCA2 R2336H ES cells, olaparib, CellTiter-Glo viability; stronger effect = higher value. In outline: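 Mouse BRCA2 R2336H ES cells were reverse-transfected with siRNA (20 nM final), treated at 48 h with 500 nM olaparib, and read by CellTiter-Glo after 72 h. Scores: MAD-based z per siRNA, median per gene, seed off-target correction.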
(In ATP-based viability assays light output follows the ATP content of the culture.)
GGAUGCAGUUCAAAAGAGATT against Acox2: the z-score is inactive: 1.2.

For GGCAUGGACAUUGAUGACATT against Dnajb1, the z-score was inactive: 0.341.

On to GGAUUUUGAUCUAAUGAGATT against Zfp354c, for which the z-score was inactive: 0.236.

As for CCCACUGCUCUAUUCAACUTT against Olfr484, the z-score is inactive: 1.25.

For the sequence GCAUUCCAAAUGGUAGACATT against Lgals4, the z-score was inactive: -0.176.

Consider GGACAGCAAAAAAGAUGUGTT against Myo6, for which the z-score was inactive: 0.761.

As to GGAGCAAGCAUGCAAGGUGTT against Cstf2, the z-score was inactive: -1.03.

With GGCCAGUCACUAAAAUCACTT against Mbd3l1, the z-score is inactive: 0.69.

On to GGAAAUAAGACCAACAUACTT against Arhgap19, for which the z-score was inactive: -0.751.

Take GGGACUUUGGAUUCAAGCGTT against Slp: the z-score was inactive: 0.191.

“GGCCAGGAGAUUCCUAUGATT against 9330132O05Rik”: the z-score was inactive: -0.955.

For GGCACUCAAUAAAUAUUUGTT against Tubb5, the z-score was inactive: 0.163.

For the sequence GGAUAUGAUGUCAAACCCUTT against AI663987, the z-score was inactive: -0.0725.

On to GGCACUUUCGGGAAUUCACTT against Nup160, for which the z-score was inactive: -2.94.

On to GCUGUUUCUACAUCAUCUATT against Nup210, for which the z-score is inactive: 0.25.

Turning to GGGACUUCUUGUGAAUGGATT against Mobp, the z-score is inactive: -0.971.

Consider CCCUUGAAGAUCACUUAGCTT against Apln, for which the z-score is inactive: 0.228.

As to CGAAGUGUGGCUGAUUCAGTT against Hebp2, the z-score is inactive: -1.71.

For the sequence “GCUCAUCGACGGUCACUUUTT against 2310057D15Rik”, the z-score is inactive: -0.624.

As to GGAACACAGUUAAGUGGAUTT against V1ri7, the z-score is inactive: 1.3.

Take GGUGCUAAUCCCAAUUUGATT against Cdkn2c: the z-score was inactive: 0.56.

As to “GGAUCAAAUAACAAUGACATT against A330009G12Rik”, the z-score is inactive: -0.0208.

Turning to GGUGUACCAAGCUGUGACATT against Rgmb, the z-score is inactive: -0.444.

As for GCAUCAUUCGCUGUGAUGATT against Trim23, the z-score is inactive: 0.1.

As for GCUACCUCUUGCAUGGGAGTT against Bivm, the z-score was inactive: 0.428.

With UAAUAAAAGGAGGUGGUUCTT against MGC58426, the z-score was inactive: -0.788.

As to “GGAGAAACUUCGAGAUAGATT against 0610042E07Rik”, the z-score is inactive: 0.228.

For the sequence “CCCUAGCAAAGCUACUUUCTT against 1700029B21Rik”, the z-score was inactive: -1.86.

On to GGAGAAGUUCUGAACUGCUTT against MGC27742, for which the z-score is inactive: -0.926.

Regarding GCAAGAAGGGACACAGUUUTT against Plk1, the z-score was inactive: 0.0578.

With GGACAAAUUUGGAUAAAUGTT against Abcg8, the z-score is inactive: -0.827.

GGGAGGCAGAAAGUCUUCUTT against Olfr1043: the z-score was inactive: -0.617.

For the sequence GGACAAAACUAAACAGCAATT against Smarcal1, the z-score was inactive: -0.645.

With GGAUAGGGUCCAUCAUGGATT against Rcn3, the z-score is inactive: -0.863.

In the case of GGAAGAGAAACGACAAAAUTT against Olfr293, the z-score is inactive: 1.18.

With GGCAACCUGCUGGUAAUCATT against Adrb3, the z-score is inactive: -0.361.

Turning to GCGGAAGGUUUACAAUGAUTT against Dyrk1a, the z-score is inactive: 0.94.

Take GGAGGAUGGAGUCAUAUAUTT against Gm773: the z-score was inactive: -0.0566.

On to CCAAAACAAGAAUCAUAUGTT against Clca4, for which the z-score is inactive: 0.564.

Take GGCAUUAAGAUCAUUAAGCTT against Myadm: the z-score is inactive: 0.335.

On to GCGCAGAACAGCCCUAUAATT against Ndufs5, for which the z-score is inactive: -2.95.

Turning to GGAUGUCUGUACAUACAGATT against Tshb, the z-score is inactive: -0.915.

As for “GCGUGUUUGCCUCGGCAAATT against D030015G18Rik”, the z-score is inactive: -0.547.

Turning to GGAUCAUGAGAAUAUCAUCTT against P4hb, the z-score is inactive: 0.481.

Regarding “GGUCUCCAGACUUGUAUAATT against A530090P03Rik”, the z-score is inactive: -2.51.

Turning to GGAGAUGAAAAAAACGAGCTT against Tmem5, the z-score is inactive: 1.92.

As to GGUACUCGAAUCUGACCUCTT against Nqo1, the z-score was inactive: 0.53.

For “GGACCUAUUACCUCAAUGATT against 1700027D21Rik”, the z-score was inactive: -0.116.

GCUGUAUCAGUCUUUCUAUTT against Cyp27b1: the z-score was inactive: -1.61.

For the sequence GGAAUGCAGAAAUGAAAAATT against Olfr1234, the z-score was inactive: -0.169.

With “GGACCAAUCUAGAGCCCAUTT against 4732456N10Rik”, the z-score was inactive: -2.57.

As for UGGUCGGCUAGAUGAUGGATT against Wdr34, the z-score is inactive: -1.36.

Regarding GGAUGUGCCAUUGAAGAUCTT against Apg4c, the z-score was inactive: 0.614.

With GAACCUUUUCCGUUUCGAGTT against Cebpb, the z-score was inactive: 0.245.

As to GGACCGUCAGUGUCAUGGATT against Zfp397, the z-score is inactive: -2.5.

CCAAGUCUUGUAGUGGAGUTT against Vdac3: the z-score was inactive: 0.948.

With GGAUGUUGUGGGAAAUGACTT against Hrasls, the z-score was inactive: 0.145.

Regarding GGAGUGACAAAAGAAAUAATT against Nudt12, the z-score is inactive: 0.0657.

On to GGGAAAGACCAUGUUUGUATT against Ttbk1, for which the z-score was inactive: 0.564.

With GGAUCAGACAUGCAAGAGGTT against Xlr5, the z-score was inactive: -0.0653.

Turning to AGUGCCUGUCUGAUUGCUCTT against Epsti1, the z-score was inactive: 0.515.

As for GGACAUCUUUUCAAACGUGTT against Centb1, the z-score was inactive: -0.258.

In the case of GCAGCCUUCGUGAGUCUGUTT against Asb1, the z-score is inactive: -1.24.

In the case of CCUGAUAACUGAUGCCGUATT against Gyltl1b, the z-score is inactive: -0.648.

For “GGACAUGGAUGACACUGAUTT against 0610007P22Rik”, the z-score was inactive: 1.15.

For GGAACUCUAUGCCAAUACCTT against Fhl2, the z-score is inactive: 0.99.

Regarding “ACUCAGUCAUUAAAGAGUGTT against G430095P16Rik”, the z-score is inactive: -0.551.

With GCCCUGCUGUUGUCAGUCUTT against Krtap5-1, the z-score was inactive: -0.789.

Regarding GGGCAACAUUGCGCAAAUGTT against Pwp2h, the z-score was inactive: -1.89.

For GGGAUAAGCAUGCUCAGUGTT against Mrgpra2, the z-score is inactive: -2.71.

For the sequence “GCGAGAGAUGAAAUGGGUGTT against 1810062O14Rik”, the z-score was inactive: -0.666.

Turning to “GGGUUUCUGUGAGAGACAATT against 2510010F15Rik”, the z-score is inactive: -0.0737.

On to GGGACAGCAGUUCAUUCUATT against Cryba2, for which the z-score is inactive: 0.129.

For the sequence GGCUCCAAGUCUACACAACTT against Dnajc6, the z-score was inactive: -0.25.

Regarding “CGGCAAAGUCCUCACAGCUTT against 1110020M19Rik”, the z-score is inactive: -1.12.

For GCCUGACAAUAGUCAUUUCTT against Olfr985, the z-score was inactive: 0.857.

As to GGACAACAAGAUCAGGACCTT against Akap4, the z-score was inactive: -0.832.

Take GGAAAAAGCCAAGCUCAUCTT against Syt3: the z-score was inactive: -0.0737.

In the case of GCAAGUCAAGCUAGAAAAATT against Slc16a1, the z-score is inactive: 1.21.

Consider GCGGUAGGGAUGAAAUAGUTT against Ccnd1, for which the z-score is inactive: -0.424.

Regarding CCAUGGUUCUCAUUAGUAATT against Adk, the z-score is inactive: -0.138.

In the case of CCCUCCACUAUGAUCAAUCTT against Gpr56, the z-score is inactive: 3.01.

In the case of GCUAAUUGAGACCUAUUUCTT against Plp1, the z-score is inactive: 0.272.

Regarding CCUGGUUAGAGAAUGGAAATT against SIRP-beta, the z-score was inactive: 1.15.

As for GGAAAGAUAGAAGACAAACTT against Spry4, the z-score is inactive: 1.06.

On to GGUAGUAUCUGGCAUAAAATT against Fhl4, for which the z-score was inactive: 0.419.

GCCUGGUAUGAGGAUCUGCTT against Ddit3: the z-score was inactive: 0.527.

CCAGUUUUCGACACAAUUCTT against Mcpt5: the z-score is inactive: -2.35.

For CGGACCCGAGUUCGAGAAATT against Cherp, the z-score is inactive: -0.219.

Consider GCAGCAUCCAAUAAAGGGATT against Car1, for which the z-score is inactive: 0.694.

On to GUGCAUCUACAACAUCGGCTT against Plp2, for which the z-score was inactive: -0.493.

Regarding “GCAGCAGUGCUUACUUAACTT against 2610528H13Rik”, the z-score is inactive: 0.787.

In the case of GCCAAUGCUUCCAUUACCATT against Abca17, the z-score was inactive: -0.31.

With GGACUUGUUAGCGCAUCUCTT against Psmb9, the z-score is inactive: 1.25.

Regarding “GCUGAAGAUGGAGCCUUGUTT against 1700011A15Rik”, the z-score was inactive: -1.49.

Turning to GGUCUACAGGCAUCAAUGATT against Nr5a1, the z-score is inactive: 0.16.

Consider “GGAGUUUUUGUGAGACAAATT against 2010011I20Rik”, for which the z-score is inactive: -0.286.

On to GCAUCAUUUCUGGGAUGGGTT against Scrg1, for which the z-score is inactive: -1.42.

In the case of CCAUUGAUGUUUGAUCGGATT against Fndc4, the z-score was inactive: 3.01.

On to GGGUCAGAAUGUUUCCUUCTT against Olfr331, for which the z-score is inactive: -1.13.

Regarding GGGCUUUGACUUCAAGACUTT against Mat1a, the z-score was inactive: -0.659.

Consider GGACAGGAUGAGUUUGACATT against Rhou, for which the z-score was inactive: -1.47.

For the sequence “GGUCAUACACUUCUGCACATT against C330006K01Rik”, the z-score was inactive: 1.27.

On to CCACCCUGCACAGAAUCUATT against Ppp2r5c, for which the z-score was inactive: -0.415.
